Source: the supplement of paper PMC7666118
This is one part of the list.

The chains behind the UniProt entries cited, without tags or fusion partners. Where a name states a change or a piece, a line headed by the entry shows the natural chain unless it says otherwise.
UniProt P22033: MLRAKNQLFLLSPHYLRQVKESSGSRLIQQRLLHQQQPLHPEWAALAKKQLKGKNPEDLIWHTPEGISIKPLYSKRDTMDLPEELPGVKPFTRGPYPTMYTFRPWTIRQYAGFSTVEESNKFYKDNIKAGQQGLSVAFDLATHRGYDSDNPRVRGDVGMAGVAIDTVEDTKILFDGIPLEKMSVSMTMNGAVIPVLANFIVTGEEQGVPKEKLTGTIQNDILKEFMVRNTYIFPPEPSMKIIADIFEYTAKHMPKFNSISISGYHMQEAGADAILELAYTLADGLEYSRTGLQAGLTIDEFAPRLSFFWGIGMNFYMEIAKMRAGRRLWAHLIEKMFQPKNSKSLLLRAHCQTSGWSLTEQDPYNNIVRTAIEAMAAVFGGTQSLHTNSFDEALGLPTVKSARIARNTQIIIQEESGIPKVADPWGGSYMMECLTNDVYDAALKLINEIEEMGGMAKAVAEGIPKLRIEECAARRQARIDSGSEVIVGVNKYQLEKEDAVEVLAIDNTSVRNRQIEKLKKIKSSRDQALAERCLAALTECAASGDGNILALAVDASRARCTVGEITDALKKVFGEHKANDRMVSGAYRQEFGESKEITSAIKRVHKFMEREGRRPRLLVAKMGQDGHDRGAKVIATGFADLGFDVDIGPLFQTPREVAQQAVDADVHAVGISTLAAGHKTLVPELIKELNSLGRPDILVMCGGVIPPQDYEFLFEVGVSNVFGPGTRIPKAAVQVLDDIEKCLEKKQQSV
UniProt Q93074, whole entry: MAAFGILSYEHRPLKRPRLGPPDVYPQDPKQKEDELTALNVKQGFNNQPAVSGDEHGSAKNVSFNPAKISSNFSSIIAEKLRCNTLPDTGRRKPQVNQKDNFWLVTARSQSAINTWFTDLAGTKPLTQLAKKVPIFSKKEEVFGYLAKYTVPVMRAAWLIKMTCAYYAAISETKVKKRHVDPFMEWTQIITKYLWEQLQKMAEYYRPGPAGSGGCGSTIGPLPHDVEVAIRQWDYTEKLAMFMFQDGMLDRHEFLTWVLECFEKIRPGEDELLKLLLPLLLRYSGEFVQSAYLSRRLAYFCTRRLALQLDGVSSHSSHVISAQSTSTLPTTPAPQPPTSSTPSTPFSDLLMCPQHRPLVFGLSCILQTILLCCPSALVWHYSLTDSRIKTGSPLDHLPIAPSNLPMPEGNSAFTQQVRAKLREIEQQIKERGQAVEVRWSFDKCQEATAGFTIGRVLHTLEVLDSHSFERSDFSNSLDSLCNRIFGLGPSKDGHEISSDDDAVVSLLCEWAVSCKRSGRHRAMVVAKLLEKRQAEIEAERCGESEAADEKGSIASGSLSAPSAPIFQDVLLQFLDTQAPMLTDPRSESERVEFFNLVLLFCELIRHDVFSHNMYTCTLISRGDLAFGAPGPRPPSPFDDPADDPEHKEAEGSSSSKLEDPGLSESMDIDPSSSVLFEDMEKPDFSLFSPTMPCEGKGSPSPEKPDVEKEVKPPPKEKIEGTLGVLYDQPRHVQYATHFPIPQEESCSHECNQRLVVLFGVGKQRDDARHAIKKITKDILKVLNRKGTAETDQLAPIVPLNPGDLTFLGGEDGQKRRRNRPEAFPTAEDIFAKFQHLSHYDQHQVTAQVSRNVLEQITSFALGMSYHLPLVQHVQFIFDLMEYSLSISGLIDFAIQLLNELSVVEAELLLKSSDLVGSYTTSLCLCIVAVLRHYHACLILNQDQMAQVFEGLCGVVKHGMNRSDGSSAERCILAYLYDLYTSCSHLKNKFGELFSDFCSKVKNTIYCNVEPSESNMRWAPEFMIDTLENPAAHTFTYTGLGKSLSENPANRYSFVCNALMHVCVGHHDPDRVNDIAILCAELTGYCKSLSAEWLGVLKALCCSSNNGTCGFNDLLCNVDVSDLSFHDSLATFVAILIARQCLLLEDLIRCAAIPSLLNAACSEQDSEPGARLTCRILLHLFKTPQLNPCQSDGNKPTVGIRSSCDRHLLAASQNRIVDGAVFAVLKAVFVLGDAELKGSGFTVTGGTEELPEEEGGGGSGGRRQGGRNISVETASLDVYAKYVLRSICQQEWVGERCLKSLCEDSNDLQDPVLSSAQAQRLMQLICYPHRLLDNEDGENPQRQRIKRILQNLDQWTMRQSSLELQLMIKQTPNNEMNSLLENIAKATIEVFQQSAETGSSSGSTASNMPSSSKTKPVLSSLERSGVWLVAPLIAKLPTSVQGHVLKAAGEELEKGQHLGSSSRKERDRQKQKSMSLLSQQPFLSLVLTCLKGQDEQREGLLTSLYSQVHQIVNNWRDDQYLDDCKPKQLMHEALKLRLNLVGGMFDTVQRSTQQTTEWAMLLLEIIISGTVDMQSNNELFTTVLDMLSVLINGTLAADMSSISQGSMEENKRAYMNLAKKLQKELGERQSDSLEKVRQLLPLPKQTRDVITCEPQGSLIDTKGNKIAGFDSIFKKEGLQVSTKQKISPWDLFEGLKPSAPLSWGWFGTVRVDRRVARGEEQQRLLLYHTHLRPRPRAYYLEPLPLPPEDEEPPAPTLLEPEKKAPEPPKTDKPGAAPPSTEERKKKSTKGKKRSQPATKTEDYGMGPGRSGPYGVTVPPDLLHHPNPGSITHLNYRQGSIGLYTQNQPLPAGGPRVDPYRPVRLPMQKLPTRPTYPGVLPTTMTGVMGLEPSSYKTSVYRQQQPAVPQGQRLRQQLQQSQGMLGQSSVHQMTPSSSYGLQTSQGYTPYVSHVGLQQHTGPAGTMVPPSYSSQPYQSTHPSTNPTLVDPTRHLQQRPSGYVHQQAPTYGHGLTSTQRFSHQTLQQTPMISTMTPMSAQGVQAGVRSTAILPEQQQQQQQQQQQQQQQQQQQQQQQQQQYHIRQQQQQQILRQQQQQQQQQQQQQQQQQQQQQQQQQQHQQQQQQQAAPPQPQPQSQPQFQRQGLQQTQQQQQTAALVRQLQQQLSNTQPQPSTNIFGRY
UniProt Q9H8S9: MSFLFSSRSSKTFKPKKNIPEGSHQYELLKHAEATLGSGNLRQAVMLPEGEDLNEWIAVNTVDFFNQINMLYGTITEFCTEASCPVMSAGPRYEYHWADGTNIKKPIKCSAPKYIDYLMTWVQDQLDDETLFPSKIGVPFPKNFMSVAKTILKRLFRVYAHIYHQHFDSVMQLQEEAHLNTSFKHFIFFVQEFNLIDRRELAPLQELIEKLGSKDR
UniProt Q9UHC7: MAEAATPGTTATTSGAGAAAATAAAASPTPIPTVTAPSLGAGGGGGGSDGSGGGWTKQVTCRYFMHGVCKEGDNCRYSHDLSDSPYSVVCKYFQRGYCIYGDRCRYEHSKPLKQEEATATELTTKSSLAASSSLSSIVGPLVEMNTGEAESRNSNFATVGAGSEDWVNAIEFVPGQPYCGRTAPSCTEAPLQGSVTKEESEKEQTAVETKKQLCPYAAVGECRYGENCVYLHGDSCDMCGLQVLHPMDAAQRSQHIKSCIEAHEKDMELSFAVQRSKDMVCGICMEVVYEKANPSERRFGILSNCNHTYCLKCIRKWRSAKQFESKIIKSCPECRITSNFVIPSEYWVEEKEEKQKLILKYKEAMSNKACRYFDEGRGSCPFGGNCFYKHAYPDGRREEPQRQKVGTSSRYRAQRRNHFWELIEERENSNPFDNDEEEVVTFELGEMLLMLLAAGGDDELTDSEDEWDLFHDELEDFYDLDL
UniProt P39210: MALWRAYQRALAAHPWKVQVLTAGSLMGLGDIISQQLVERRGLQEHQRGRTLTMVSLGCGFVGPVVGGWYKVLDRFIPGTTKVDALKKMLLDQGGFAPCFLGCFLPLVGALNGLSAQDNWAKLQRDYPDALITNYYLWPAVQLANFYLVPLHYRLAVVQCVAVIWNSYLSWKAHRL
UniProt A0JLT2: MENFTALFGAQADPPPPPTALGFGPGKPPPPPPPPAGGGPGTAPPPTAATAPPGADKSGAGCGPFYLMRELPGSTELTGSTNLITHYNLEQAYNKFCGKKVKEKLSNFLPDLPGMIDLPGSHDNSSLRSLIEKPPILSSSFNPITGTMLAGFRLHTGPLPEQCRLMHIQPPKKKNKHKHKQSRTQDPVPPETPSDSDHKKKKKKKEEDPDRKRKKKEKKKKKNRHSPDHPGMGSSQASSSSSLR
UniProt P11586, whole entry: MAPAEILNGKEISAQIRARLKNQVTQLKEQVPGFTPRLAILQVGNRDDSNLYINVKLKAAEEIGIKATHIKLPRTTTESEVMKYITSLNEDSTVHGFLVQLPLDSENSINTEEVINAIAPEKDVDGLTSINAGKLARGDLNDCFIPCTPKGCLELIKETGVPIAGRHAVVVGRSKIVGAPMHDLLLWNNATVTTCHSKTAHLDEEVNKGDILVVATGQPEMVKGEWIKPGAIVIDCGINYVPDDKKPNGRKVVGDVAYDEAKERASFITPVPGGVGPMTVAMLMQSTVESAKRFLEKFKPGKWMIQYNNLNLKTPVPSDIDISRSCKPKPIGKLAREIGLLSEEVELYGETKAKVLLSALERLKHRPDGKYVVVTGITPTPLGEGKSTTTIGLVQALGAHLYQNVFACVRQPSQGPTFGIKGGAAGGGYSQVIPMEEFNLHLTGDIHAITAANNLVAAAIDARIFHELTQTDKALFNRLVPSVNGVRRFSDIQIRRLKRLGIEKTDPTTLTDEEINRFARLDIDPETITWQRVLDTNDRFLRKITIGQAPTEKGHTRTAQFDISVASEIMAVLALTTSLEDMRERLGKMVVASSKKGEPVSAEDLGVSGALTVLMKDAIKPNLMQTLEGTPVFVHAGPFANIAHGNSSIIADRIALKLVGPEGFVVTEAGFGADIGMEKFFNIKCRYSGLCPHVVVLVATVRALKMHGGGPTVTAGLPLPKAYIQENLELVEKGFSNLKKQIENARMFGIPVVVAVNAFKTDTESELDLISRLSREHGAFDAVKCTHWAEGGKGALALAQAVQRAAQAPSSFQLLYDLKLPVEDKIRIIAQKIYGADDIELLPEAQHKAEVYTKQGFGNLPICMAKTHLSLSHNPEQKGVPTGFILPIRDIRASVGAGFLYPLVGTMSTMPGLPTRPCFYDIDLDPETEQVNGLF
UniProt Q9GZY8: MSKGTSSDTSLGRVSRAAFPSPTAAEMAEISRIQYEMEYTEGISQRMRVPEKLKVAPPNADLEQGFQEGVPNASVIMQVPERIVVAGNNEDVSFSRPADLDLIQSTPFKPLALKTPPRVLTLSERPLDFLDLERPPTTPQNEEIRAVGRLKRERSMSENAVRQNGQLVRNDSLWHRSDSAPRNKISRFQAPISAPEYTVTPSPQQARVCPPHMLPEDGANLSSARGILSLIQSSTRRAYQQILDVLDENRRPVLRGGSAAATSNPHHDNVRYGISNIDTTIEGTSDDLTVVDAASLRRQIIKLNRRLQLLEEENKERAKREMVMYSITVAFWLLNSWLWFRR
UniProt Q13615: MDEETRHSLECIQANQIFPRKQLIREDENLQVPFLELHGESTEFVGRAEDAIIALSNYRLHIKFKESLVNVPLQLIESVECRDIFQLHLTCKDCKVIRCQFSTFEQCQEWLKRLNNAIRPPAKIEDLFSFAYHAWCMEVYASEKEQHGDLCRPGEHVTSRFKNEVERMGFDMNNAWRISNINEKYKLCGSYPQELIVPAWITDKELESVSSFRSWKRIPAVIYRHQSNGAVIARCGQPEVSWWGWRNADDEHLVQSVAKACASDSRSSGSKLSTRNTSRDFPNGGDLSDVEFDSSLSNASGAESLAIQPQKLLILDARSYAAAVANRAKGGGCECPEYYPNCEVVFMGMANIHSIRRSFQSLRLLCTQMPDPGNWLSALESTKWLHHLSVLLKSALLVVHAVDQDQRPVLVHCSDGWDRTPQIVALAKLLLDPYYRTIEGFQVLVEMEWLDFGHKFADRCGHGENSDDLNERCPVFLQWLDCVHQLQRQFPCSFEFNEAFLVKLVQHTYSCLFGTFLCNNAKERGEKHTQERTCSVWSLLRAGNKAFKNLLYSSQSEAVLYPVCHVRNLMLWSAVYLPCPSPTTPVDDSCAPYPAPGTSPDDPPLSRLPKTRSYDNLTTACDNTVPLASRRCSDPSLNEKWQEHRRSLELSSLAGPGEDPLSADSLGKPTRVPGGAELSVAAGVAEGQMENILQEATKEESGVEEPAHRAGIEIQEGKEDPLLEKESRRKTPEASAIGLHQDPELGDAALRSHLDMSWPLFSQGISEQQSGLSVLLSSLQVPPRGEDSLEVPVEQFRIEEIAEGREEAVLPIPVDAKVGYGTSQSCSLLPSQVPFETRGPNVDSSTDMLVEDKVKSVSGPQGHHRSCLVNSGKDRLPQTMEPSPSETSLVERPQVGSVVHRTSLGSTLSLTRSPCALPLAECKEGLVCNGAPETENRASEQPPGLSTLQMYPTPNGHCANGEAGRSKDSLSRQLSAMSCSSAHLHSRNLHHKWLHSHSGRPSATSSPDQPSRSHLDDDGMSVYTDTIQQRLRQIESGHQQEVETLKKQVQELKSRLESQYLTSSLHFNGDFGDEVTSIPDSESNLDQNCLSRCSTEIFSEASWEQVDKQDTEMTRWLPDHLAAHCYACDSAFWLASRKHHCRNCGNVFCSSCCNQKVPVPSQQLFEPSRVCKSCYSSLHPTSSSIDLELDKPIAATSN

The targets below were run with COc1ccc(Cn2ccc3cc(C)c(C(=O)NO)cc32)cc1 (assay: dose-dependent thermal stabilisation call (2D-TPP, DLPTP, 10% FDR) (binary (1 = stabilised)); higher = stabilised by the compound). Conditions: system: HL-60 intact cells; concentration range 0.04-10 µM.
Experimental: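 2D thermal proteome profiling in intact HL-60 cells treated with BRD-3811 (0, 0.04, 0.29, 2, 10 uM) for 90 min at 37 C, then heated 3 min at one of 12 temperatures (42-63.9 C). Soluble protein was quantified by TMT10 MS. The value is the DLPTP call of the paper: dose-dependent thermal stabilisation over all temperatures at 10% FDR (F-test of a dose-response against a flat model); one experiment, one call per tested protein.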

| Target | dose-dependent thermal stabilisation call |
| --- | --- |
| MXRA7 (UniProt P84157) | inactive: 0 |
| MTCP1 (UniProt P56278) | inactive: 0 |
| MPP1 (UniProt Q00013) | inactive: 0 |
| MSTO1 (UniProt Q9BUK6) | inactive: 0 |
| MUTED (UniProt Q8TDH9) | inactive: 0 |
| MGST1 (UniProt P10620) | inactive: 0 |
| MKI67IP (UniProt Q9BYG3) | inactive: 0 |
| MED16 (UniProt Q9Y2X0) | inactive: 0 |
| MTIF3 (UniProt Q9H2K0) | inactive: 0 |
| MRPL40 (UniProt Q9NQ50) | inactive: 0 |
| MPHOSPH10 (UniProt O00566) | inactive: 0 |
| MUT (UniProt P22033) | inactive: 0 |
| MRPL16 (UniProt Q9NX20) | inactive: 0 |
| MED12 (UniProt Q93074) | inactive: 0 |
| MRPL49 (UniProt Q13405) | inactive: 0 |
| MIB1 (UniProt Q86YT6) | inactive: 0 |
| MOBKL1B (UniProt Q9H8S9) | inactive: 0 |
| MRPS23 (UniProt Q9Y3D9) | inactive: 0 |

| Target | dose-dependent thermal stabilisation call |
| --- | --- |
| MKRN1 (UniProt Q9UHC7) | inactive: 0 |
| MSRB3 (UniProt Q8IXL7) | inactive: 0 |
| MPV17 (UniProt P39210) | inactive: 0 |
| MOSC2 (UniProt Q969Z3) | inactive: 0 |
| MRPL22 (UniProt Q9NWU5) | inactive: 0 |
| METTL3 (UniProt Q86U44) | inactive: 0 |
| MED19 (UniProt A0JLT2) | inactive: 0 |
| MINA (UniProt Q8IUF8) | inactive: 0 |
| MLC1 (UniProt Q15049) | inactive: 0 |
| MTG1 (UniProt Q9BT17) | inactive: 0 |
| MTHFD1 (UniProt P11586) | inactive: 0 |
| MSN (UniProt P26038) | inactive: 0 |
| MFF (UniProt Q9GZY8) | inactive: 0 |
| MRPS35 (UniProt P82673) | inactive: 0 |
| MTMR3 (UniProt Q13615) | inactive: 0 |
| MVD (UniProt P53602) | inactive: 0 |
| MRPS11 (UniProt P82912) | inactive: 0 |
| MTMR14 (UniProt Q8NCE2) | inactive: 0 |

Part of the list above, as tab-separated lines.
Target	dose-dependent thermal stabilisation call
MED19 (UniProt A0JLT2)	inactive: 0
MINA (UniProt Q8IUF8)	inactive: 0
